This is one part of the list.

Amino acid sequences for entries named in this document (tags omitted).
UniProt Q0JBA9, entry or part of it: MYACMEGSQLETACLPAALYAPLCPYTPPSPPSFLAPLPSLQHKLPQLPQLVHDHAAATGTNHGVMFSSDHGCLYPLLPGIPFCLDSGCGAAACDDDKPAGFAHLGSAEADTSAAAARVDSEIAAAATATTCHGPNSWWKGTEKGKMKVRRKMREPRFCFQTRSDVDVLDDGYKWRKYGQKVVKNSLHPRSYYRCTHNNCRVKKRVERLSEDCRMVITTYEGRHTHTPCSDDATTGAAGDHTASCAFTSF

The experiment addresses OsWRKY34 (Oryza sativa, UniProt Q0JBA9 1-250). The experiment is described as follows: protein-binding microarray (RPBM); PBS, 2% BSA, 51.3 ng/ul salmon testes DNA, 50 uM zinc acetate, 200 nM TF, 25 C, 1 h; high values mean tight binding. Particulars: protein: recombinant; tags: N-terminal polyhistidine and DsRed monomer fusion (pET32a); label: CyDye5-dUTP incorporated in the synthesized complementary strand; 3' TTTTT single-stranded linker to array surface; dsDNA, one strand shown. The method, boiled down: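 The binding signal is fluorescence intensity per array feature (arbitrary units). Readings came from an Axon 4000B scanner after a washed, 2% BSA-blocked, double-stranded custom Agilent array had been incubated for 1 h at 25 °C with 200 nM protein and 50 µM zinc acetate. The protein was a Ni–NTA-purified transcription factor fused N-terminally to polyhistidine and DsRed, expressed in E. coli BL21-CodonPlus.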
On to “TCGCAAACACATTTTCTCCTCCATCACAGTCGGCGTTTTGCGGAGTCACCTAGTGCAG”, for which the binding signal is 10700 fluorescence intensity (a.u.).
Next, “TACGCCCTAAGTTACATTCTCTACAATATTGTTCTCTAAACGGAGTCACCTAGTGCAG”: 8470 fluorescence intensity (a.u.); “ACACACCACTTATCCGCTGCAGCAACCTCGCAATCCCCTCCGGAGTCACCTAGTGCAG”: 9840 fluorescence intensity (a.u.).
Next, “GTGCTGCCTTTGATTTTTTGCTGTTACCATGGCGTGCATCCGGAGTCACCTAGTGCAG”: 8040 fluorescence intensity (a.u.).
Turning to “AATCGTCTCCGGGCCCTTCTTTTTTCCCGGGAAGCGTCAGCGGAGTCACCTAGTGCAG”, the binding signal is 10100 fluorescence intensity (a.u.).
As for “TCCATCCCATTCCCGCCATCTCTGCATCTTCTTCTTCTTCCGGAGTCACCTAGTGCAG”, the figure is 9910 fluorescence intensity (a.u.).
As for “GCTTACACGTCTTCTTCGCCGCCGCCTCGCTTCTCTACCTCGGAGTCACCTAGTGCAG”, the binding signal is 10900 fluorescence intensity (a.u.).
Next, “CATTTCCACTTTATTTCATTTCTGCAATATGCAGCATACACGGAGTCACCTAGTGCAG”: 8370 fluorescence intensity (a.u.).
For “TTCATTATTTGTTTCTGCCTGGGCTCATCGATATGATCTCCGGAGTCACCTAGTGCAG”, the binding signal is 9410 fluorescence intensity (a.u.).
With “GACTTGGCTACACACGACTACTACCTATTTCTATTTCGATCGGAGTCACCTAGTGCAG”, the binding signal was 8240 fluorescence intensity (a.u.).
Next, “TCAATTGTGCAAACCGTTCTCAATTTTCACCTGCAATTGTCGGAGTCACCTAGTGCAG”: 9490 fluorescence intensity (a.u.).
As for “ACTAGTACTCCACCATTTTTATTTTTTTATTCTTTTACTTCGGAGTCACCTAGTGCAG”, the figure is 9950 fluorescence intensity (a.u.).
Next, “GTCAAGTGTCTGGCTTTTTCTTATCTATCAATAACACTTTCGGAGTCACCTAGTGCAG”: 8390 fluorescence intensity (a.u.); “ATTAATTTTGACGCTTCATCCCCTCTGTCCCCAGCACCAGCGGAGTCACCTAGTGCAG”: 8630 fluorescence intensity (a.u.); “TACCTCCCACTGCCGTGAGCCGCCGCCATTGTTCCCTTAGCGGAGTCACCTAGTGCAG”: 8330 fluorescence intensity (a.u.).
“TCAACCTCACGCTCAAGCTGCATCTCTCTCTCTCTCTCTCCGGAGTCACCTAGTGCAG”: the binding signal was 9880 fluorescence intensity (a.u.).
As for “CACAAGTATAAATCCCACTCTCTGAAGCGGTGTGTGTTTTCGGAGTCACCTAGTGCAG”, the binding signal is 10000 fluorescence intensity (a.u.).
Next, “GGCATCAAACTATAGTTATCAAGTTTTTAACCATTGTTTTCGGAGTCACCTAGTGCAG”: 8640 fluorescence intensity (a.u.); “ATTTGCTACGTCGTCCGTGTTTGAGTCGGTTTTGAAGTTTCGGAGTCACCTAGTGCAG”: 8960 fluorescence intensity (a.u.).
For the sequence “GGCCGTTGGTCCCGCTGCCTCGTCTTCGTTTACCTTCGCCCGGAGTCACCTAGTGCAG”, the binding signal is 9950 fluorescence intensity (a.u.).
Take “CTTCTCGCGATTTCTCTTCTAACTGTGCAATTAGTTTTTTCGGAGTCACCTAGTGCAG”: the binding signal was 8480 fluorescence intensity (a.u.).
As to “CTTGGATCAGCCACCGGGCATCGATCAGTTGATCATCAAACGGAGTCACCTAGTGCAG”, the binding signal was 9570 fluorescence intensity (a.u.).
In the case of “TCGTCATTGTCGCCATGTCCTTCCATCTACAAGCCCACGTCGGAGTCACCTAGTGCAG”, the binding signal was 11400 fluorescence intensity (a.u.).
Take “ATCCATATCACCGACTTGATCACCAGCCACCAGGAAAACCCGGAGTCACCTAGTGCAG”: the binding signal was 10800 fluorescence intensity (a.u.).
As for “TTCCTCATGTTATCTGTGGTTTAGATCGAGTTAGCATTTTCGGAGTCACCTAGTGCAG”, the binding signal was 8420 fluorescence intensity (a.u.).
As for “CGCTGCCATCGCTTCGATCTACTCCCCTGCGCACCCATCGCGGAGTCACCTAGTGCAG”, the figure is 9210 fluorescence intensity (a.u.); as for “TCTCTTTTTTTGCAAAACCTTGCCTAATTGTTGCCATTGACGGAGTCACCTAGTGCAG”, 8600 fluorescence intensity (a.u.).
Next, “GTCTTGCTGGCTCATCCATGGCAACTCGCTAATCACGTGACGGAGTCACCTAGTGCAG”: 8350 fluorescence intensity (a.u.); “TTGGTTTTCACATTTTTTACTGCCAAATACTACCATTGACCGGAGTCACCTAGTGCAG”: 9520 fluorescence intensity (a.u.); “CCGCACCGGATCTCATCTCATTCTCGCCGTCTTCTCTTCTCGGAGTCACCTAGTGCAG”: 13300 fluorescence intensity (a.u.).
Next, “TTCTTATAGCTCAATTTTTTCCTTTCGTTTTGTACAGTTTCGGAGTCACCTAGTGCAG”: 13500 fluorescence intensity (a.u.); “CTCCTTCTTCTTCTTCTCAACGATGTCCTAGCTAGGAATACGGAGTCACCTAGTGCAG”: 9040 fluorescence intensity (a.u.).
Take “AAACTGCCAGCTTTCTGCATCTCTCCGCCCTCATGATGCGCGGAGTCACCTAGTGCAG”: the binding signal was 9490 fluorescence intensity (a.u.).
As for “GCGCAGCTAGCTACAGATCTATAGTTCGCTACTTTGCTTTCGGAGTCACCTAGTGCAG”, the figure is 8490 fluorescence intensity (a.u.); as for “TTAGCAAGGGAGTAGCTATATTTATGGCGCCATATTTTTCCGGAGTCACCTAGTGCAG”, 8950 fluorescence intensity (a.u.).
Consider “TTTTTCACAATTAATTCATTCGTTTGTATAGTCGATTATCCGGAGTCACCTAGTGCAG”, for which the binding signal is 9590 fluorescence intensity (a.u.).
With “CTTCACTTCTCCTCAAAGGGCTCATATTACTACCGAGTTGCGGAGTCACCTAGTGCAG”, the binding signal is 8420 fluorescence intensity (a.u.).
As for “ATCTCCGCCGTCAACATTTGGACTCCTTGAAGAATATAGCCGGAGTCACCTAGTGCAG”, the figure is 8610 fluorescence intensity (a.u.).
Turning to “CCAACCGCCGCGCCGCTTCGCTGTCTTCACCGTGCCGCTCCGGAGTCACCTAGTGCAG”, the binding signal was 8620 fluorescence intensity (a.u.).
As to “CCTGCCACGACTTGCGTATATACTTGCGGTAACCTGTCAACGGAGTCACCTAGTGCAG”, the binding signal is 8640 fluorescence intensity (a.u.).
With “AACACAGTTTTCTGGCATTGACTTGCTGCCTGTTTTTCTTCGGAGTCACCTAGTGCAG”, the binding signal was 8600 fluorescence intensity (a.u.).
For the sequence “ACCACTCCATCAGTCCACCACCCACCTTCCCCGACCTTATCGGAGTCACCTAGTGCAG”, the binding signal was 10100 fluorescence intensity (a.u.).

(Values after article PMC7819943, “Rice protein-binding microarrays: a tool to detect cis-acting elements near promoter regions in rice”.)
